According to patent publication US20020132776A1 (N-Zyme Biotech GmbH, priority 2000, published 2002):

Test: general procedure: solution-phase peptide synthesis

Substance: tert-Butyloxycarbonyl-L-glutaminyl-L-glutaminyl-L-isoleucyl-L-valine
- step yield (late stage modification step): 39%

Substance: tert-Butyloxycarbonyl-L-glutaminyl-L-glutaminyl-L-isoleucyl-L-valine Methyl Ester
- step yield (coupling step): 80%

Substance: γ-Aldehyde of tert-butyloxycarbonyl-L-glutaminyl-L-glutaminyl-L-isoleucyl-L-valine
- step yield (late stage modification step): 25%
